# Measured values reported in PubChem BioAssay AID743255 (National Center for Advancing Translational Sciences (NCATS), 2014).
# Protein sequences, listed by entry. Tags and fused reporters are not part of them. Lines headed by an entry give the natural chain unless they say otherwise; changes in a name come on top.
# UniProt O94782: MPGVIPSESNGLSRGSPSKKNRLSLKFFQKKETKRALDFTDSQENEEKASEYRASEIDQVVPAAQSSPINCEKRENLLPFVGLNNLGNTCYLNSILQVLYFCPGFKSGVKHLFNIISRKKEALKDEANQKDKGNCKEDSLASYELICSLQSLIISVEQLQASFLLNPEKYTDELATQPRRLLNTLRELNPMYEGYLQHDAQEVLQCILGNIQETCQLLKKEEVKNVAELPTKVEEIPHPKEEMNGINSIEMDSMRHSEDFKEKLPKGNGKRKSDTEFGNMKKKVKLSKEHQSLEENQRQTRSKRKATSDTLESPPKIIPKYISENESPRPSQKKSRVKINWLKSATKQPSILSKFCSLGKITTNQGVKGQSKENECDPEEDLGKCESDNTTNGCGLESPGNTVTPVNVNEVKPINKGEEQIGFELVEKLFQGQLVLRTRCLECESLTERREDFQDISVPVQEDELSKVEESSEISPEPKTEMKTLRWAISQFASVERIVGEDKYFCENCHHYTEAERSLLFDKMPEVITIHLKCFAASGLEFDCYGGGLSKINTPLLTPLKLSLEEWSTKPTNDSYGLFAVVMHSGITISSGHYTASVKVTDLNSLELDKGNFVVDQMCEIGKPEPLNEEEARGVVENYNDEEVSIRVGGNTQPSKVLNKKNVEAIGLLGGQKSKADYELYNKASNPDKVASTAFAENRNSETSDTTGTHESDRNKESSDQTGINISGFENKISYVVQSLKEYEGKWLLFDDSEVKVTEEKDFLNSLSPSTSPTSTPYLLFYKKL
# Hit rate of the full screen: of about 390,000 compounds, about 910 (0.23%) were called active. Inconclusive means that the source gave no clear call. Such entries were picked first, then a sample of the others. Calls follow the shape of the dose curve; as a rule, active = well fitted inhibition curve with a large enough effect; inconclusive = small, poorly fitted or top-dose-only effect; inactive = no such curve, though single readings can be large or run the other way. A potency beside an inconclusive call is a rough fit, not a confirmed value.
# Biological target: Ubiquitin carboxyl-terminal hydrolase 1 (Homo sapiens) (UniProt O94782)
# Test: Inhibitors of USP1/UAF1: Primary Screen; also: nearly all actives have a fitted effect of over 60% in size
# Conditions: recombinant USP1/UAF1, Ub-Rhodamine cleavage fluorescence; activity change, negative = inhibition: at 57.1 µM (top of the series)
# Method in brief: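 USP1/UAF1 complex (1 nM) preincubated 15 min at room temperature with compound, then Ub-Rho substrate (150 nM final) added. Kinetic fluorescence at 480/540 nm over 6 reads at 60 s intervals; 50 mM HEPES pH 7.8, 0.5 mM EDTA, 0.1 mg/ml BSA, 1 mM TCEP, 0.01% Tween-20.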
# % is scaled to controls: 0 for no effect and ±100 for the full control effect; potency is read from the fitted curve at half-maximal effect.
Structure (SMILES),Potency,"activity change, negative = inhibition"
COc1ccc(C(=O)NCc2ccc3c(c2)CCN3C(=O)c2cccc(C)c2)cc1OC,"inconclusive: 39.8 µM [inhibitor, partial curve, poor fit]",–
Cc1ccc(C(=O)c2cn(Cc3cccc(F)c3)c3nc(C)ccc3c2=O)cc1,"inconclusive: 100 µM [inhibitor, partial curve]",–
CN(C)c1ccc(C(=O)Nc2nc3c(s2)CCCC3)cc1,inactive,–
Cc1cccc(-c2nc(N3CCN(c4ccc(F)cc4)CC3)c3ccccc3n2)c1,"inconclusive: 8.91 µM [inhibitor, full curve]",–
CN1CCN(Cc2c(O)ccc3cc(-c4ccccc4)c(=O)oc23)CC1,"inconclusive: 8.91 µM [inhibitor, full curve, poor fit]",–
O=C(O)c1ccccc1C1=Nc2ccc(O)cc2Oc2cc(O)ccc21,active: 28.2 µM,–
CCN(CC)C(=O)C1=C(C)N(CCCOC)C(=O)C(CC(=O)NCC2CCCCC2)C1 (centres undefined),inactive,–
CCCCOc1ccccc1NC(=O)Cn1c(-c2cncs2)nc2ccccc21,"inconclusive: 39.8 µM [inhibitor, partial curve, poor fit]",–
CCN(C[C@H]1N[C@@](Cc2ccccc2)(C(=O)OC)[C@H]2C(=O)N(Cc3ccccc3)C(=O)[C@@H]12)C(=O)Nc1ccc(F)cc1,"inconclusive: 89.1 µM [inhibitor, partial curve, poor fit]",–
Cc1ccc(Cl)cc1N1CCN(C(=O)COc2ccc3c(c2)CCC3)CC1,"inconclusive: 31.6 µM [inhibitor, partial curve]",–
CCOC(=O)c1[nH]c2ccccc2c1NC(=O)c1ccc(OCC)cc1,"inconclusive: 0.316 µM [inhibitor, full curve, poor fit]",–
Cc1ccc(-c2nc3ccccc3[nH]2)cc1N,–,inconclusive: -0.181% [inhibitor]
COCCN(C(=O)Cc1cccs1)C(C(=O)NCc1ccc(OC)cc1)c1ccc(C)cc1 (centres undefined),"inconclusive: 11.2 µM [inhibitor, partial curve, poor fit]",–
CCCCCn1c(=O)[nH]c2cc(C(=O)N3CCN(c4ccccc4F)CC3)ccc2c1=O,"inconclusive: 5.62 µM [inhibitor, partial curve]",–
COC(=O)c1c(-c2ccc(Cl)cc2)noc1N1CCN(c2cccc(OC)c2)CC1,"inconclusive: 50.1 µM [inhibitor, partial curve, poor fit]",–
c1ccc(COc2cccc(CNn3cnnc3)c2)cc1,–,inconclusive: 11.8% [inhibitor]
COc1cccc(N(CC(=O)NC2CCCCC2)C(=O)CCCC(=O)Nc2ccccn2)c1,"inconclusive: 31.6 µM [inhibitor, partial curve]",–
COc1cc(CNC(=O)c2cc3ccccc3oc2=O)cc(OC)c1OC,"inconclusive: 3.98 µM [inhibitor, partial curve]",–
O=C(O)COc1ccc2c(c1)O/C(=C\c1cccs1)C2=O,inactive,–
CCOC(=O)c1[nH]c2ccccc2c1NC(=O)C(C)(C)C,"inconclusive: 56.2 µM [inhibitor, partial curve, poor fit]",–

# One compound at a time, as listed above. Values in the order: Potency | activity change, negative = inhibition
# CCCCCn1c(=O)[nH]c2cc(C(=O)N3CCN(c4ccccc4F)CC3)ccc2c1=O in the list: inconclusive: 5.62 µM [inhibitor, partial curve] | –
# COC(=O)c1c(-c2ccc(Cl)cc2)noc1N1CCN(c2cccc(OC)c2)CC1 in the list: inconclusive: 50.1 µM [inhibitor, partial curve, poor fit] | –

# Next part:

Structure (SMILES),Potency,"activity change, negative = inhibition"
CCOc1ccc(C(CC(=O)O)NC(=O)COc2ccccc2OC)cc1OC (centres undefined),"inconclusive: 7.94 µM [inhibitor, partial curve, poor fit]",–
COCCSc1nnc(NC(=O)c2ccc(NC(=O)C(C)C)cc2)s1,"inconclusive: 7.94 µM [inhibitor, partial curve]",–
CCOC(=O)c1c(S(=O)(=O)N2CCCC(C(=O)N(C)Cc3ccccc3)C2)c(C)n(C)c1C (centres undefined),"inconclusive: 3.98 µM [inhibitor, full curve]",–
CC(C)(C)C(=O)O/N=C(\N)COc1cccc(Cl)c1,inactive,–
Cc1ccc2c(CN(C)Cc3ccc(Cl)cc3)cc(=O)oc2c1,"inconclusive: 10 µM [inhibitor, single point]",–
COc1ccc(S(=O)(=O)NCCc2csc3nc(-c4ccc(Cl)cc4)nn23)cc1C,"inconclusive: 79.4 µM [inhibitor, partial curve, poor fit]",–
COc1ccc2[nH]c(=O)c(CN(C(=O)c3cccc(Cl)c3)c3ccccc3OC)cc2c1,inactive,–
CC1CN=C(N(C(=S)Nc2ccccc2)c2cccc(C(F)(F)F)c2)S1 (centres undefined),"inconclusive: 44.7 µM [inhibitor, partial curve, poor fit]",–
CC1(C)C2CCC(CN=C(N)CSS(=O)(=O)O)C1C2 (centres undefined),"inconclusive: 25.1 µM [inhibitor, partial curve]",–
CN(C(=O)c1cccc(NC(=O)Cc2ccc(NC(=O)C3CCN(C(=O)C4CCCC4)CC3)cc2)c1)C1CC1,"inconclusive: 0.126 µM [inhibitor, full curve, poor fit]",–
COc1ccc(C)cc1-n1nnnc1SCC1CCCO1 (centres undefined),inactive,–
Cc1ccc(C(=O)Nc2ccccc2N2CCN(C(=O)C(C)C)CC2)cc1,inactive,–
O=C(C[C@@H]1C/C=C/CC[C@@H](Cc2ccc(F)cc2)C(=O)O[C@H](c2ccccc2)CNC1=O)NCCO,"inconclusive: 8.91 µM [inhibitor, partial curve, poor fit]",–
Cc1ccc(NC(=O)c2ccc3snnc3c2)cc1Cl,"inconclusive: 0.316 µM [inhibitor, full curve, poor fit]",–
CCc1ccc(S(=O)(=O)c2nnn(-c3ccc(F)cc3)c2N)cc1,"inconclusive: 7.94 µM [inhibitor, full curve, poor fit]",–
C=C(C)Cn1c(SCC(=O)Nc2cc(C)ccc2C)nc2sc3c(c2c1=O)CCCC3,"inconclusive: 0.631 µM [inhibitor, full curve, poor fit]",–
COc1cccc(C=NNC(=O)C(C)SC(C)C(=O)NN=Cc2cccc(OC)c2)c1 (centres undefined),"inconclusive: 5.62 µM [inhibitor, partial curve, poor fit]",–
COc1ccc(CCNC(=O)c2ccc(CSc3ccccc3)o2)cc1,inactive,–
Cc1ccc2c(c1)[C@H]1[C@H](CO2)[C@H](c2ccccc2)[C@]2(C)C(=O)N(Cc3ccc(F)cc3)CC(=O)N12,"inconclusive: 44.7 µM [inhibitor, partial curve, poor fit]",–
